Measured values published in PMC12059159.
No constants are given. Whether binding was seen depends on the method and setting. Binding seen in cells or lysates may run through a third protein. Some entries that bind do so weakly or less than the wild type. For some of these results: Sequences can lack the tags named with a protein.

T1: ATG9A (endogenous) (human (endogenous in HeLa)) (UniProt Q7Z3C6)
T1 sequence: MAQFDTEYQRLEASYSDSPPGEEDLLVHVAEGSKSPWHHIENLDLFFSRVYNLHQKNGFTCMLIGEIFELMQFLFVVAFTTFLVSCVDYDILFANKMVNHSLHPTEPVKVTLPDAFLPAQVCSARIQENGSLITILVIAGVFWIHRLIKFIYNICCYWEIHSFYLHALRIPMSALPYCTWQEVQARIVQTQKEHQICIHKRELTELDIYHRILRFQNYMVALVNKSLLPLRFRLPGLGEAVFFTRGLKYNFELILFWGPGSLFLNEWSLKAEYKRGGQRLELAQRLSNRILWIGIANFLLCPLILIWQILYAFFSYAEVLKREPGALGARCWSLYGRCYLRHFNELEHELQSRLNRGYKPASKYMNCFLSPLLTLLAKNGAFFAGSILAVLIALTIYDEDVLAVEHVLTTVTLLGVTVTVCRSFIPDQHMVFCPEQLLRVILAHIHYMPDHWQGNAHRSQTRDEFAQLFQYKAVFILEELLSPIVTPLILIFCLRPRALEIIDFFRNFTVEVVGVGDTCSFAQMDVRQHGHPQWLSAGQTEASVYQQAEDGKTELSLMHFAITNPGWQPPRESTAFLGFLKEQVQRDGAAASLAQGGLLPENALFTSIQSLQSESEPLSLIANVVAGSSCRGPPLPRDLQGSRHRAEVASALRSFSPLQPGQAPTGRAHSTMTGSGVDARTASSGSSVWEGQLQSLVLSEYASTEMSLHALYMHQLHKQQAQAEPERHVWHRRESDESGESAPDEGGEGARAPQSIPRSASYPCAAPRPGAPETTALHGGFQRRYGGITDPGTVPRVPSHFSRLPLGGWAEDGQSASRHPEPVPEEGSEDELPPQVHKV

T2: TMED10-GFP (UniProt P49755)
T2 sequence: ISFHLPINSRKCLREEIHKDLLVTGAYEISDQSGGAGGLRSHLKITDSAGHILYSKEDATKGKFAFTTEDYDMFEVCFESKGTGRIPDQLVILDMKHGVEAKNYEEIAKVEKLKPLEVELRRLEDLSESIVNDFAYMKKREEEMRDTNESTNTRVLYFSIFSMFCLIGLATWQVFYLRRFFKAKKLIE

T3: ATG9A-GFP (UniProt Q7Z3C6)
T3 sequence: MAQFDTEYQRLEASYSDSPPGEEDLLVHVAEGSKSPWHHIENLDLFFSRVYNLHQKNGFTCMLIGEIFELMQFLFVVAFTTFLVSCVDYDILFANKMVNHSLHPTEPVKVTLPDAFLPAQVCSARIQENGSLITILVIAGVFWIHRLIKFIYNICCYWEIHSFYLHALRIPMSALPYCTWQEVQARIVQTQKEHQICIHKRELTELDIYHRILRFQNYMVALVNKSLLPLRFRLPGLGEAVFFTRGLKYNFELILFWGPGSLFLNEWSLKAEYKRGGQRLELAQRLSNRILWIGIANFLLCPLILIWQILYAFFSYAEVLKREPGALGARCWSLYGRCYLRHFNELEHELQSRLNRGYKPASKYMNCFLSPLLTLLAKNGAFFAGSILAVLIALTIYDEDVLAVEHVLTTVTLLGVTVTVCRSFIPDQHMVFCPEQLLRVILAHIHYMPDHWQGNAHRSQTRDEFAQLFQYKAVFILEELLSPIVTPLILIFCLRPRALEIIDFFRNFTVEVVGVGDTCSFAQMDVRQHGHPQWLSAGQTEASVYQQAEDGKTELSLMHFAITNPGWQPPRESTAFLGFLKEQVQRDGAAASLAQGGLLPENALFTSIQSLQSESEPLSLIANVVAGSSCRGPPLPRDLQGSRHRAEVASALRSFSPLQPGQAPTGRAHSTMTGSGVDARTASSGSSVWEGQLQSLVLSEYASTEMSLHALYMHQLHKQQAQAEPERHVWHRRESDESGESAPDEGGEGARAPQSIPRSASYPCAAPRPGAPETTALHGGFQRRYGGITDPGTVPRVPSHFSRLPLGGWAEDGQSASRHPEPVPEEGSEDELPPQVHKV


What was measured:
[1] = biological target: T1, ATG9A (endogenous) (human (endogenous in HeLa)); experiment: co-IP; endogenous ATG9A immunoprecipitated with an anti-ATG9A antibody and magnetic beads from lysates of HeLa cells expressing galectin-9-Myc; blot with anti-Myc and anti-ATG9A; normal conditions, 24-h DMEM starvation or PMA treatment; lysis in 50 mM Tris-HCl pH 7.4, 150 mM NaCl, 1 mM EDTA, 1% Triton X-100, 4 °C
TMED10-GFP = biological target: T2, TMED10-GFP; experiment: co-IP; GFP-Trap: galectin-9-Myc co-expressed with TMED10-GFP in HeLa cells; lysates precipitated with GFP-Nanoab-Agarose beads for 1 h at 4 °C; blot with anti-Myc and anti-GFP
ATG9A-GFP = biological target: T3, ATG9A-GFP; experiment: co-IP; galectin-9-Myc co-expressed with ATG9A-GFP or ATG9A (ΔN)-GFP in HeLa cells; lysates immunoprecipitated with an anti-GFP antibody and magnetic beads; blot with anti-Myc and anti-GFP; 50 mM Tris-HCl pH 7.4, 150 mM NaCl, 1 mM EDTA, 1% Triton X-100, 4 °C
GST-galectin-9 (human) = GST-galectin-9 (human) (UniProt O00182); experiment: pull-down; purified GST or GST-galectin-9 on glutathione beads incubated with HeLa cell lysates at 4 °C, washed with 1x PBS; blot with anti-ATG9A and anti-GST; only the target purified

binding [1] | binding (TMED10-GFP) | binding (ATG9A-GFP) | binding (GST-galectin-9 (human)) | Molecule
binds | binds | binds |  | galectin-9-Myc (from UniProt O00182 1-355)
 |  |  | binds | ATG9A (endogenous) (protein, UniProt Q7Z3C6 1-839) MAQFDTEYQRLEASYSDSPPGEEDLLVHVAEGSKSPWHHIENLDLFFSRVYNLHQKNGFTCMLIGEIFELMQFLFVVAFTTFLVSCVDYDILFANKMVNHSLHPTEPVKVTLPDAFLPAQVCSARIQENGSLITILVIAGVFWIHRLIKFIYNICCYWEIHSFYLHALRIPMSALPYCTWQEVQARIVQTQKEHQICIHKRELTELDIYHRILRFQNYMVALVNKSLLPLRFRLPGLGEAVFFTRGLKYNFELILFWGPGSLFLNEWSLKAEYKRGGQRLELAQRLSNRILWIGIANFLLCPLILIWQILYAFFSYAEVLKREPGALGARCWSLYGRCYLRHFNELEHELQSRLNRGYKPASKYMNCFLSPLLTLLAKNGAFFAGSILAVLIALTIYDEDVLAVEHVLTTVTLLGVTVTVCRSFIPDQHMVFCPEQLLRVILAHIHYMPDHWQGNAHRSQTRDEFAQLFQYKAVFILEELLSPIVTPLILIFCLRPRALEIIDFFRNFTVEVVGVGDTCSFAQMDVRQHGHPQWLSAGQTEASVYQQAEDGKTELSLMHFAITNPGWQPPRESTAFLGFLKEQVQRDGAAASLAQGGLLPENALFTSIQSLQSESEPLSLIANVVAGSSCRGPPLPRDLQGSRHRAEVASALRSFSPLQPGQAPTGRAHSTMTGSGVDARTASSGSSVWEGQLQSLVLSEYASTEMSLHALYMHQLHKQQAQAEPERHVWHRRESDESGESAPDEGGEGARAPQSIPRSASYPCAAPRPGAPETTALHGGFQRRYGGITDPGTVPRVPSHFSRLPLGGWAEDGQSASRHPEPVPEEGSEDELPPQVHKV
